Melanoma cell counts after drug treatment

Values as published with doi:10.1371/journal.pone.0140310, rounded.

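Human melanoma cells were exposed to two drugs together for 72 h in 1,536-well plates and read by automated microscopy after fixing and staining. The read-out is cell count (nuclei) in % of the DMSO control; lower values mean stronger growth inhibition or killing. Every drug was used at one fixed concentration, the lower of two screened (a fifth of the higher). The file gives one value for each pair and line, without errors, so small differences may be noise.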
This is part of the screen, not chosen by result.
A dash means that no value is listed here.

Every entry is a combination with tamatinib at 0.4 µM: COc1cc(Nc2ncc(F)c(Nc3ccc4c(n3)NC(=O)C(C)(C)O4)n2)cc(OC)c1OC

Second drug,A2058,A101D,501mel,C32,A375
C=C(c1ccc(C(=O)O)cc1)c1cc2c(cc1C)C(C)(C)CCC2(C)C at 2 µM,76.9,108,-,111,78.3
Cn1c(Nc2ccc(C(F)(F)F)cc2)nc2cc(Oc3ccnc(-c4ncc(C(F)(F)F)[nH]4)c3)ccc21 at 0.08 µM,92.4,66.8,-,89.6,73.2
C[C@@H](N)c1ccc(C(=O)Nc2ccnc3[nH]ccc23)cc1 at 0.4 µM,70.1,75.4,-,86.0,76.6
O=C(O)c1ccc2c(c1)nc(Nc1cccc(Cl)c1)c1ccncc12 at 0.4 µM,89.5,97.9,-,92.2,72.9
O=C(Nc1cccc(Cl)c1)Nc1ncc(CCNc2ncnc3ccsc23)s1 at 0.0008 µM,77.8,76.3,-,91.2,78.3
CN(C)S(=O)(=O)c1ccc2c(c1)/C(=C/c1cc3c([nH]1)CCCC3)C(=O)N2 at 0.4 µM,82.8,55.1,-,93.1,90.5
COC(=O)c1sccc1S(=O)(=O)Nc1ccc(Nc2ccccc2)cc1OC at 1 µM,87.9,84.0,90.7,87.9,89.9
Cn1cc(C2=C(c3cn(C4CCN(Cc5ccccn5)CC4)c4ccccc34)C(=O)NC2=O)c2ccccc21 at 0.8 µM,81.0,59.8,-,93.4,63.7
CCCCCCCCCCCCCCCCCCOP(=O)([O-])OC1CC[N+](C)(C)CC1 at 0.4 µM,53.3,76.4,-,107,8.1
C#Cc1cccc(Nc2ncnc3cc(OCCOC)c(OCCOC)cc23)c1 at 0.8 µM,76.1,88.4,-,94.0,90.9
Nc1cccc2c1CN(C1CCC(=O)NC1=O)C2=O (stereo not drawn) at 1 µM,88.0,79.6,-,103,82.1
Cc1cc(Nc2cc(N3CCN(C)CC3)nc(Sc3ccc(NC(=O)C4CC4)cc3)n2)n[nH]1 at 0.006 µM,75.8,76.1,-,88.1,91.9
CC1(C)CCC(c2ccc(Cl)cc2)=C(CN2CCN(c3ccc(C(=O)NS(=O)(=O)c4ccc(N[C@H](CCN5CCOCC5)CSc5ccccc5)c(S(=O)(=O)C(F)(F)F)c4)cc3)CC2)C1 at 0.4 µM,88.5,27.7,-,62.6,86.5
CN(c1ncccc1CNc1nc(Nc2ccc3c(c2)CC(=O)N3)ncc1C(F)(F)F)S(C)(=O)=O at 0.08 µM,73.0,82.7,-,79.2,75.4
CS(=O)(=O)c1ccc(C(=O)Nc2ccc(Cl)c(-c3ccccn3)c2)c(Cl)c1 at 1 µM,89.1,82.4,-,101,84.5
C[C@]1(c2nc3c(C(N)=O)cccc3[nH]2)CCCN1 at 1.4 µM,76.2,81.6,-,82.5,70.8
C[As](C)SC[C@H](NC(=O)CC[C@H](N)C(=O)O)C(=O)NCC(=O)O at 0.4 µM,97.3,68.3,-,103,82.8
Cc1ccc(Nc2nccc(N(C)c3ccc4c(C)n(C)nc4c3)n2)cc1S(N)(=O)=O at 0.4 µM,89.3,92.5,-,93.8,88.6
C=CCNC1=C2C[C@@H](C)C[C@H](OC)[C@H](O)[C@@H](C)/C=C(\C)[C@H](OC(N)=O)[C@@H](OC)/C=C\C=C(/C)C(=O)NC(=CC1=O)C2=O at 0.002 µM,72.9,90.8,-,107,78.7

Some entries from above, unchanged:

| Second drug | A2058 | A101D | 501mel | C32 | A375 |
|---|---|---|---|---|---|
| C=C(c1ccc(C(=O)O)cc1)c1cc2c(cc1C)C(C)(C)CCC2(C)C at 2 µM | 76.9 | 108 | - | 111 | 78.3 |
| O=C(O)c1ccc2c(c1)nc(Nc1cccc(Cl)c1)c1ccncc12 at 0.4 µM | 89.5 | 97.9 | - | 92.2 | 72.9 |